These are yes or no findings as the source states them, for the method shown. Binding seen in cells or lysates may run through a third protein. Some entries that bind do so weakly or less than the wild type. Where a sequence is shown, tags or fusion partners need not be part of it.
T1: MBP-AtSE core (core fragment of SERRATE, residues 194-543, fused with maltose binding protein) (A. thaliana) (UniProt Q9ZVD0)
T1 sequence: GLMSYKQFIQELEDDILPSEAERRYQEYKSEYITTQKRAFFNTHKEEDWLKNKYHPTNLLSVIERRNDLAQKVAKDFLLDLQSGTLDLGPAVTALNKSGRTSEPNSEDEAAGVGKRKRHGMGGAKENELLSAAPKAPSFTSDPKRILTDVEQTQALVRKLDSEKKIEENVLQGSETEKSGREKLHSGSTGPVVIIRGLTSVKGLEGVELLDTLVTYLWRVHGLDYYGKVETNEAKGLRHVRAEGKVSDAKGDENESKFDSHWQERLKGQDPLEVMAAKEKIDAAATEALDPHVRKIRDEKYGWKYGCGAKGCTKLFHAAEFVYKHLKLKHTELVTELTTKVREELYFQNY

T2: MBP-AtSE FL (full-length SERRATE fused with maltose binding protein) (A. thaliana) (UniProt Q9ZVD0)
T2 sequence: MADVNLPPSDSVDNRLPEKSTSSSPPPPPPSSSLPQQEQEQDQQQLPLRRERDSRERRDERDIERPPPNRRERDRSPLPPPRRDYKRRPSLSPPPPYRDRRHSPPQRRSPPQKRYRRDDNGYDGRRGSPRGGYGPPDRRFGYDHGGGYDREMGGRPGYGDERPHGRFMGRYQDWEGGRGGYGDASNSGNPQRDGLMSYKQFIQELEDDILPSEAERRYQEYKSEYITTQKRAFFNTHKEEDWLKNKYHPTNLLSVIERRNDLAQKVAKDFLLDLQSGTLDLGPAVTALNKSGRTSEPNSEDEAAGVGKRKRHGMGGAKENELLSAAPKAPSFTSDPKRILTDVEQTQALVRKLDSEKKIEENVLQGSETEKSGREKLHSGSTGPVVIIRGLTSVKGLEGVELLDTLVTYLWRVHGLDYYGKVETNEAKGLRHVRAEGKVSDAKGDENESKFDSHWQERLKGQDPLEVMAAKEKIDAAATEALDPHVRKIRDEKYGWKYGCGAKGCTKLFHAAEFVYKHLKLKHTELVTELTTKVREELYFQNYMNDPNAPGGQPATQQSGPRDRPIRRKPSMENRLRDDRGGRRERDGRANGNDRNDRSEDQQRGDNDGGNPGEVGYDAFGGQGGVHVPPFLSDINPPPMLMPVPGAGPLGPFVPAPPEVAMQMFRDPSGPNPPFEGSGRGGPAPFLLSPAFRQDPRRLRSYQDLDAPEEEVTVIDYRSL

T3: AtHYL1:FLAG (A. thaliana) (UniProt O04492)
T3 sequence: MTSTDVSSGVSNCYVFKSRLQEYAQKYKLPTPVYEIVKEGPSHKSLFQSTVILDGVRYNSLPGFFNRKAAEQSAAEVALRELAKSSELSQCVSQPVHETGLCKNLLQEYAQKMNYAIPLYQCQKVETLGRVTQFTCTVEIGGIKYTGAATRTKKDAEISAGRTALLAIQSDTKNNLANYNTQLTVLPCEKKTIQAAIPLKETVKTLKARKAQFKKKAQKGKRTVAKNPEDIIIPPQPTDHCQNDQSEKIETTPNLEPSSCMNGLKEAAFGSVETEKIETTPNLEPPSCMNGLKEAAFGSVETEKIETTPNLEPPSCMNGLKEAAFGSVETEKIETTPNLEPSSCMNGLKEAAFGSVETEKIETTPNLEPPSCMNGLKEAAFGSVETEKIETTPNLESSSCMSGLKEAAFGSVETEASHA


Experiments:
[1] = molecular target: T1, MBP-AtSE core (core fragment of SERRATE, residues 194-543, fused with maltose binding protein) (A. thaliana); assay: pull-down; MBP fusions from E. coli bound to amylose resin; incubated with [35S]-methionine-labelled in vitro translated proteins (AtCBP20 and AtCBP80 separately or together) in phosphate buffer (28 mM NaH2PO4, 72 mM Na2HPO4, 250 mM KCl, 0.5% Triton X-100) for 2 h at 4°C; eluted with 10 mM maltose; SDS-PAGE and image analyzer; only the target purified
[2] = molecular target: T2, MBP-AtSE FL (full-length SERRATE fused with maltose binding protein) (A. thaliana); assay: as above
[3] = molecular target: T3, AtHYL1:FLAG (A. thaliana); assay: co-IP; nuclear protein lysate of 35-day leaves of transgenic plants, infiltrated with 1% formaldehyde; anti-FLAG magnetic beads overnight at 4°; washed four times with lysis buffer (300 mM NaCl, 0.75% Triton X-100, 0.15% SDS); western blot with anti-AtCBP20 and anti-AtCBP80

| binding [1] | binding [2] | Binder | binding [3] |
| --- | --- | --- | --- |
| binds | binds | [35S]-methionine-labeled AtCBP20 (protein, UniProt Q9XFD1 1-257, [35S]-methionine labelled) MASLFKEQAKLSAYRDRRFSGTQEEFDEALRASTTVYIGNVSFYTTEEQLYELFSRAGEIKKIIMGLDKNTKTPCGFCFVLFYSREDTEDAVKYISGTILDDRPIRVDFDWGFQEGRQWGRGRSGGQVRDEYRTDYDPARGGYGKLVQKELEAQRQLVDYGTGSLGAYPQAAPTNYGNGRRGGGNYGQGGQNRHGRGDYHRKRQRDDDRYGRDNSRRNTDHESRRDTDSDMRPEKNPRFRESGDSDDDGEDDRKRRS |  |
| binds |  | [35S]-methionine-labeled AtCBP80 (protein, UniProt Q9SIU2 1-848, [35S]-methionine labelled) MSNWKTLLLRIGEKGPEYGTSSDYKDHIETCFGVIRREIERSGDQVLPFLLQCAEQLPHKIPLYGTLIGLLNLENEDFVQKLVESVHANFQVALDSGNCNSIRILLRFMTSLLCSKVIQPASLIVVFETLLSSAATTVDEEKGNPSWQPQADFYVICILSSLPWGGSELAEQVPDEIERVLVGIQAYLSIRKNSSTSGLNFFHNGEFESSLAEKDFVEDLLDRIQSLASNGWKLESVPRPHLSFEAQLVAGKFHELRPIKCMEQPSPPSDHSRAYSGKQKHDALTRYPQRIRRLNIFPANKMEDVQPIDRFVVEEYLLDVLFYLNGCRKECASYMANLPVTFRYEYLMAETLFSQILLLPQPPFKTLYYTLVIMDLCKALPGAFPAVVAGAVRALFEKISDLDMESRTRLILWFSHHLSNFQFIWPWEEWAFVLDLPKWAPKRVFVQEILQREVRLSYWDKIKQSIENATALEELLPPKAGPNFMYSLEEGKEKTEEQQLSAELSRKVKEKQTARDMIVWIEETIYPVHGFEVTLTIVVQTLLDIGSKSFTHLVTVLERYGQVFSKLCPDNDKQVMLLSQVSTYWKNNVQMTAVAIDRMMGYRLVSNQAIVRWVFSPENVDQFHVSDQPWEILGNALNKTYNRISDLRKDISNITKNVLVAEKASANARVELEAAESKLSLVEGEPVLGENPAKMKRLKSTVEKTGEAELSLRESLEAKEALLNRALSETEVLLLLLFQSFLGVLKERLPDPTKVRSVQDLKSIGAEDDKPSAMDVDSENGNPKKSCEVGEREQWCLSTLGYLTAFTRQYASEIWPHMEKLESEVFSGEDVHPLFLQAISSALQFPLH |  |
|  |  | AtCBP80 (endogenous, in plant nuclear lysate) (protein, UniProt Q9SIU2 1-848) MSNWKTLLLRIGEKGPEYGTSSDYKDHIETCFGVIRREIERSGDQVLPFLLQCAEQLPHKIPLYGTLIGLLNLENEDFVQKLVESVHANFQVALDSGNCNSIRILLRFMTSLLCSKVIQPASLIVVFETLLSSAATTVDEEKGNPSWQPQADFYVICILSSLPWGGSELAEQVPDEIERVLVGIQAYLSIRKNSSTSGLNFFHNGEFESSLAEKDFVEDLLDRIQSLASNGWKLESVPRPHLSFEAQLVAGKFHELRPIKCMEQPSPPSDHSRAYSGKQKHDALTRYPQRIRRLNIFPANKMEDVQPIDRFVVEEYLLDVLFYLNGCRKECASYMANLPVTFRYEYLMAETLFSQILLLPQPPFKTLYYTLVIMDLCKALPGAFPAVVAGAVRALFEKISDLDMESRTRLILWFSHHLSNFQFIWPWEEWAFVLDLPKWAPKRVFVQEILQREVRLSYWDKIKQSIENATALEELLPPKAGPNFMYSLEEGKEKTEEQQLSAELSRKVKEKQTARDMIVWIEETIYPVHGFEVTLTIVVQTLLDIGSKSFTHLVTVLERYGQVFSKLCPDNDKQVMLLSQVSTYWKNNVQMTAVAIDRMMGYRLVSNQAIVRWVFSPENVDQFHVSDQPWEILGNALNKTYNRISDLRKDISNITKNVLVAEKASANARVELEAAESKLSLVEGEPVLGENPAKMKRLKSTVEKTGEAELSLRESLEAKEALLNRALSETEVLLLLLFQSFLGVLKERLPDPTKVRSVQDLKSIGAEDDKPSAMDVDSENGNPKKSCEVGEREQWCLSTLGYLTAFTRQYASEIWPHMEKLESEVFSGEDVHPLFLQAISSALQFPLH | no binding |

Source: PMC3902902
